Reference: patent publication US20030170807A1 (Johns Hopkins, published 2003)
Results are given in words; binding and its absence hold for the method and conditions named. In cells and extracts the contact can be indirect. Some results given as binding are weak or reduced against the parent protein; the word gives no strength.

Amino acid sequences for entries named in this document (tags omitted). Residues count along the entry.
UniProt P23385, residues 19-1199: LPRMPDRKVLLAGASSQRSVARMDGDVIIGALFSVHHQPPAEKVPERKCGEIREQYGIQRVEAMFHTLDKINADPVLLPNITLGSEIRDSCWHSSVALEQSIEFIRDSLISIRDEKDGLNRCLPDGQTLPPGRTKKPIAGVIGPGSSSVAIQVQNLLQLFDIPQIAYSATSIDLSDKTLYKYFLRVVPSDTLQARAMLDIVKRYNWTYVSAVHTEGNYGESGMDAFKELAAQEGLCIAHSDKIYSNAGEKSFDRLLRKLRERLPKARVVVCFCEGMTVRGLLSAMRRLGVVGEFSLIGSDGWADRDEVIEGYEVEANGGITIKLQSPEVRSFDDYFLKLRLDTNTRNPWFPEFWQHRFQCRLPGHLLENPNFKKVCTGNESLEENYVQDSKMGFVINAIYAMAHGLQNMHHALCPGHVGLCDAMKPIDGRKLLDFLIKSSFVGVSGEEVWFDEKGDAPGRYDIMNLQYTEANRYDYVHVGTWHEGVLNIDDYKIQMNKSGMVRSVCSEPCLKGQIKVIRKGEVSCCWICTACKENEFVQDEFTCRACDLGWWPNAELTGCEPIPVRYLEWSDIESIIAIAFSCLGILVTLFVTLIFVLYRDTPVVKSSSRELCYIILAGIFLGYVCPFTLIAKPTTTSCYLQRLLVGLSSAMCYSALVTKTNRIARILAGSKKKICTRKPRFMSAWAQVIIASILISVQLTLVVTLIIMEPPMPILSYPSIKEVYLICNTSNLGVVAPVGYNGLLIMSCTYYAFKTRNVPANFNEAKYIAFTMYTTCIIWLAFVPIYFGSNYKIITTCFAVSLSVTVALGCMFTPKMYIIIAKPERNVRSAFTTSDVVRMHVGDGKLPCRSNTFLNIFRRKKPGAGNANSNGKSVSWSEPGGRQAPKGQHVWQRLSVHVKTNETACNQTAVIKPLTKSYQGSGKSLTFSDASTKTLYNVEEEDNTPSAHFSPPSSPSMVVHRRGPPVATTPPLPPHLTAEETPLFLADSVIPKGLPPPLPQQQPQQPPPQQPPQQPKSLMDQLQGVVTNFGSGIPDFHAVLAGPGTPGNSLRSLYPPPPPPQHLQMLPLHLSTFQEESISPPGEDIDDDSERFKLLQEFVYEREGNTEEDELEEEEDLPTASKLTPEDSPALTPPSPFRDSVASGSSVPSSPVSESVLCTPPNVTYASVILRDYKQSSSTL

Target: mGluR1α, native, from rat cerebellum/brain extracts (rat) (UniProt P23385)
Test: co-immunoprecipitation from adult rat cerebellum extracts

B1: Homer 3, native, from rat brain extracts (protein, UniProt Q9Z2X5 1-358, looked up)
chain: MSTAREQPIFSTRAHVFQIDPATKRNWIPAGKHALTVSYFYDATRNVYRIISIGGAKAIINSTVTPNMTFTKTSQKFGQWADSRANTVYGLGFGSEQQLTQFAEKFQEVKEAARLAREKSQDGGELTSTALAMASHQVPPSPLVSTNGPEEKLFRSQSADAPGPTERERLKKMLSEGSVGEVQWEAEFFALQDSNQRLAGALREANAAATQWRQQLEVQRAEAEHLRQRVAELEAQVAAEPVRAGEKEATSQSVEQLEARVQTKDQEIQTLKNQSTGPREAPDTAEREETQQQVQDLETRNAELEQQLRAMESNLEEARAERERARAEVGRAAQLLDVRLFELSELREGLARLAEAAP
  binding: binds
